The text below walks through data of the supplement of paper PMC4604168 (melanoma cell lines).

Test systems include 501Mel; A101D; A2058; A375; C32; CBRC008; CBRC014; CBRC016; CBRC017; CBRC034; COLO792; COLO800; COLO829; G361; IPC-298; IST-MEL1; LB2518-MEL; LOXIMVI; MEL-HO.
Test in all cases: cleaved PARP positive nuclei fraction relative to DMSO control; melanoma cells; higher = more apoptosis
What all share (details): library dose: low library concentration; 72 h

The other results are listed elsewhere or left out. Repeats are few or missing, and single values can be far off.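 The apoptosis fraction was the count of cleaved-PARP antibody-stained nuclei relative to all DNA-stained nuclei, imaged in 1,536-well plates. Screening doses were set so most cells survived, and baseline and induced cleaved-PARP levels vary greatly across cell lines.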

As for `O=C(/C=C/c1cccnc1)NCCCCC1CCN(C(=O)c2ccccc2)CC1` + COc1ccc(Cl)c(Nc2nc3ccccc3nc2NS(=O)(=O)c2cccc(NC(=O)C(C)(C)N)c2)c1 [XL147] (first compound 0.01 µM, partner dose 0.8 µM), the “cleaved PARP positive nuclei fraction” value stood at 137% with 501Mel; 94.2% in the experiment with A101D; 179% in the experiment on A2058; 36.4% with A375; 71.9% in the experiment on C32; 4270% in the experiment on CBRC008 (line from a melanoma biopsy). Further, the “cleaved PARP positive nuclei fraction” value in the experiment on CBRC014 (line from a melanoma biopsy) turned out to be 118%; with CBRC016, 705%; in the experiment with CBRC017, 436%; with CBRC034, 1980%; in the experiment on COLO792 it was 764%; in the experiment on COLO800, 110%. The “cleaved PARP positive nuclei fraction” value with COLO829 was 391%; in the experiment with G361, 6520%; in the experiment on IPC-298, 99.2%; in the experiment with IST-MEL1, 100%; in the experiment on LB2518-MEL, 712%; with LOXIMVI it was 147%. Moreover, the “cleaved PARP positive nuclei fraction” value with MEL-HO stood at 87.2%.
Regarding `Cc1cn(-c2cc(NC(=O)c3ccc(C)c(Nc4nccc(-c5cccnc5)n4)c3)cc(C(F)(F)F)c2)cn1` [nilotinib] + CCN(CC)CCNC(=O)c1c(C)[nH]c(/C=C2\C(=O)Nc3ccc(F)cc32)c1C [sunitinib] (first compound 0.2 µM, partner dose 0.4 µM), the “cleaved PARP positive nuclei fraction” value was found to be 60.8% in the experiment on 501Mel; 50.4% with A101D; 139% in the experiment on A2058; 95.2% in the experiment on A375; 71.2% in the experiment with C32; 40.9% in the experiment with CBRC008. Besides, the “cleaved PARP positive nuclei fraction” value in the experiment with CBRC014 came to 91.6%; in the experiment with CBRC016, 46.2%; with CBRC017 it was 92.1%; in the experiment with CBRC034, 86%; with COLO792, 74.7%; in the experiment on COLO800, 69.9%. Besides, the “cleaved PARP positive nuclei fraction” value is 69.2% with COLO829; 56.7% in the experiment on G361; 42.9% in the experiment with IPC-298; 57.5% in the experiment with IST-MEL1; 83.3% in the experiment on LB2518-MEL; 47.5% with LOXIMVI. Also, the “cleaved PARP positive nuclei fraction” value with MEL-HO was found to be 47.4%.
As for `N#CC[C@H](C1CCCC1)n1cc(-c2ncnc3[nH]ccc23)cn1` [ruxolitinib] + COc1ccc(C2=N[C@@H](c3ccc(Cl)cc3)[C@@H](c3ccc(Cl)cc3)N2C(=O)N2CCNC(=O)C2)c(OC(C)C)c1 [Nutlin-3] (first compound 1 µM, partner dose 0.1 µM), the “cleaved PARP positive nuclei fraction” value is 65.6% in the experiment on 501Mel; 33.9% in the experiment with A101D; 118% with A2058; 49.1% in the experiment on A375; 74% in the experiment with C32; 104% in the experiment on CBRC008. The “cleaved PARP positive nuclei fraction” value in the experiment on CBRC014 was 87.9%; in the experiment on CBRC016 (line from a melanoma biopsy) it was 115%; with CBRC017, 134%; in the experiment with CBRC034 it was 75.6%; in the experiment with COLO792 it was 12.3%; in the experiment with COLO800 it was 57.8%. Also, the “cleaved PARP positive nuclei fraction” value was determined as 102% with COLO829; 124% in the experiment with G361; 122% with IPC-298; 29.5% in the experiment with IST-MEL1; 40.2% in the experiment with LB2518-MEL; 125% with LOXIMVI. Further, the “cleaved PARP positive nuclei fraction” value with MEL-HO is 84.4%.
`Cc1cc(Nc2cc(N3CCN(C)CC3)nc(Sc3ccc(NC(=O)C4CC4)cc3)n2)n[nH]1` [Tozasertib] + Cn1nnc2c(C(N)=O)ncn2c1=O [temozolomide] (first compound 0.006 µM, partner dose 2 µM): the “cleaved PARP positive nuclei fraction” value was 78.2% with 501Mel; 49.8% in the experiment on A101D; 98.3% in the experiment on A2058; 75.6% in the experiment on A375; 87.4% in the experiment on C32; 106% with CBRC008. Further, the “cleaved PARP positive nuclei fraction” value with CBRC014 stood at 132%; in the experiment on CBRC016, 116%; in the experiment on CBRC017 (line from a melanoma biopsy) it was 92.5%; with CBRC034, 98.4%; in the experiment on COLO792 it was 87.2%; with COLO800 it was 323%. Besides, the “cleaved PARP positive nuclei fraction” value amounted to 78.7% in the experiment on COLO829; 127% in the experiment with G361; 121% with IPC-298; 73.5% with IST-MEL1; 66.9% in the experiment with LB2518-MEL; 289% with LOXIMVI. In addition, the “cleaved PARP positive nuclei fraction” value in the experiment with MEL-HO is 50.4%.
